Measured values taken from PMC9088311, “Cyclic Thiosulfonates for Thiol-Mediated Uptake: Cascade Exchangers, Transporters, Inhibitors” (JACS Au, 2022).

Test system: HeLa Kyoto cells
Assay: Relative viability (HOE/PI) in HCHT screening
Method: One advantage of HCHT imaging of cellular uptake compared to flow cytometry[38],[42],[43] is that it simultaneously gives information on toxicity and intracellular localization. […] Information on the intracellular localization of reporters can be quantified through segmentation of cellular compartments stained with specific markers.[52]
Uptake inhibition was measured by the automated HCHT imaging used already to elaborate on cytosolic delivery. For inhibitor screening, HK cells in multiwell plates were incubated with increasing concentrations of inhibitors, followed by fluorescent transporters 28, 31, and 32 at a constant concentration. […] If inhibitors are removed before the addition of transporters 28, 31, and 32, the method is referred to as “pre-incubation”. This is of interest to minimize exchange between the transporter and the inhibitor but is often problematic because dynamic covalent exchange between the inhibitor and cellular target can also be reversed and thus lost. The complementary “co-incubation” operates without inhibitor removal before the addition of transporters 28, 31, and 32.
Relative cell viability ( RV) for each condition in the presence of inhibitors was calculated […]
of the relative cell viability ( RVrel) to the concentration of inhibitors ( cinhibitor ) was plotted and fitted with Equation (S19) to retrieve the concentration causing 50% cell growth inhibition (RV50) value and the Hill coefficient ( n).

[1] = with transporter 28, pre-incubation (P)

SMILES | n (RV50), Hill coefficient for cell viability [1] | also measured
CC(C)(C)[Si](C)(C)O[C@@H]1CS(=O)(=O)SC[C@@H]1O [Compound 6] | – | n (RV50), Hill coefficient for cell viability (with transporter 31, co-incubation (C)): 8 ± 3
O=S1(=O)C=C[C@@H](O)CS1 [Compound 12] | – | n (RV50), Hill coefficient for cell viability (with transporter 28, co-incubation (C)): 1.1 ± 0.4
CC(C)(C)[Si](C)(C)O[C@H]1CS(=O)(=O)SC[C@H]1OC(=O)NCCNC(=O)CC(O)(CC(=O)NCCNC(=O)O[C@H]1CSS(=O)(=O)C[C@H]1O[Si](C)(C)C(C)(C)C)C(=O)NCCNC(=O)O[C@@H]1CSS(=O)(=O)C[C@@H]1O[Si](C)(C)C(C)(C)C (some centres unmarked) [Compound 42] | 2.0 ± 0.5 | –
CCCNC(=O)O[C@H]1CSS(=O)(=O)C[C@H]1O[Si](C)(C)C(C)(C)C [Compound 43] | 2.6 ± 0.7 | –
C#CCNC(=O)CC[C@H](NC(=O)COCCNC(=O)O[C@H]1CSS(=O)(=O)C[C@H]1O[Si](C)(C)C(C)(C)C)C(=O)NCCOCCNC(=O)O[C@H]1CSS(=O)(=O)C[C@H]1O[Si](C)(C)C(C)(C)C [Compound 44] | 3.7 ± 0.9 | –
